The list shows only some results of the screen, not a fair sample: it gathers tests that were run many times, whatever their T/C, doses with no T/C, and many T/C values between a quarter and a half above the control. Other doses and runs of a compound stand elsewhere. T/C: endpoint of the treated group in % of that of the vehicle group. Some doses have a count of surviving animals in place of a T/C: the source files T/C as zero there, which appears to mark a toxic dose or a test without result, not a measured value. Some doses without a T/C left all or most animals alive at the check, yet need not have been tolerated: survival well below the control is almost never listed, so the zero probably covers shortened survival too. Counts of survivors are from the toxicity check (mostly the fifth day) where no day follows; animals may have died later. Schedules are NCI's codes, read here as Q, the interval in days (D) or hours (H), X, the number of doses. Brackets with × give the number of equal values in this list. For survival time, this PubChem deposit counts one and a half times the control or more as active, and values a quarter to a half above the control carry no call in these data; other NCI protocols may use other cut-offs. Some entries were tested several times; the results are listed from low to high.
Tested on: P388 leukemia ip, CD2F1 mice, survival T/C
Experiment: NCI In Vivo Anticancer Drug Screen. Data for tumor model P388 Leukemia (intraperitoneal) in CD2F1 (CDF1) mice
Details: T/C endpoint: median survival time, higher T/C = longer survival
[1] = dose: 200.0 mg/kg/injection, schedule: Q01DX005 (ip), vehicle: Klucel (hydroxypropylcellulose) (HPC)
[2] = dose: 25.0 mg/kg/injection, schedule: Q01DX009 (ip), vehicle: Klucel (hydroxypropylcellulose) (HPC)
[3] = dose: 50.0 mg/kg/injection, schedule: Q01DX009 (ip), vehicle: Klucel (hydroxypropylcellulose) (HPC)
[4] = dose: 50.0 mg/kg/injection, schedule: Q01DX009 (ip), vehicle: saline
[5] = dose: 100.0 mg/kg/injection, schedule: Q01DX009 (ip), vehicle: Klucel (hydroxypropylcellulose) (HPC)
[6] = dose: 100.0 mg/kg/injection, schedule: Q01DX009 (ip), vehicle: saline
[7] = dose: 200.0 mg/kg/injection, schedule: Q01DX009 (ip), vehicle: Klucel (hydroxypropylcellulose) (HPC)
[8] = dose: 200.0 mg/kg/injection, schedule: Q01DX009 (ip), vehicle: saline
[9] = dose: 50.0 mg/kg/injection, schedule: Q01DX005 (ip), vehicle: Klucel (hydroxypropylcellulose) (HPC)
[10] = dose: 100.0 mg/kg/injection, schedule: Q01DX005 (ip), vehicle: Klucel (hydroxypropylcellulose) (HPC)
[11] = dose: 400.0 mg/kg/injection, schedule: Q04DX002 (ip), vehicle: saline with Tween-80
[12] = dose: 200.0 mg/kg/injection, schedule: Q01DX005 (ip), vehicle: saline with Tween-80
[13] = dose: 100.0 mg/kg/injection, schedule: Q01DX009 (ip), vehicle: saline with Tween-80
[14] = dose: 200.0 mg/kg/injection, schedule: Q01DX009 (ip), vehicle: saline with Tween-80

Which results are given for `C1C[N-]CC[N-]CC[N-]CC[N-]1.[Cl][Rh][Cl]`?
T/C (dose: 1.56 mg/kg/injection, schedule: Q01DX009 (ip), vehicle: saline): 138 % of control; survivor count (dose: 25.0 mg/kg/injection, schedule: Q01DX009 (ip), vehicle: saline): 4 of 6

Which T/C [1] does the source give for `[CH3][Sn]([CH3])([n]1nnc2ccccc21)[n]1nnc2ccccc21` here?
The T/C was 125 % of control.

With `CSCCC([NH-])C(=O)O.CSCCC([NH-])C(=O)O.[Cu+2]` (centres undefined) as the molecule, how does the survivor count [2] read?
The survivor count was 2 of 5.

What about the survivor count [3] of the same molecule?
Its survivor count is 0 of 6.

What about the survivor count [4] of the same molecule?
Its survivor count is 0 of 6.

What about the survivor count [5] of the same molecule?
The survivor count was 0 of 6.

And the survivor count [6]?
The survivor count was 0 of 6.

And the survivor count [7]?
Its survivor count is 0 of 6.

And the survivor count [8]?
Its survivor count is 0 of 6.

With `Cc1c(C)n(-c2ccccc2)c2nc(C)n(-c3ccccc3)c(=N)c12` as the molecule, how does the survivor count [1] read?
The survivor count was 0 of 6.

For `[Cl][Sn]([CH2]C[CH2][Sn]([Cl])([c]1ccccc1)[c]1ccccc1)([c]1ccccc1)[c]1ccccc1`, which survivor count [9] is on record?
Its survivor count is 3 of 6.

And the survivor count [10]?
Its survivor count is 1 of 6.

And the survivor count [1]?
The survivor count was 0 of 6.

With `O=C(N/N=C/c1ccco1)C(=O)Nc1cccc(C(F)(F)F)c1` as the molecule, how does the survivor count [10] read?
The survivor count was 6 of 6.

And the survivor count [1]?
The survivor count was 6 of 6.

Which T/C [11] does the source give for `O=C(/C=C/c1ccccc1)Oc1cc([N+](=O)[O-])cc([N+](=O)[O-])c1` here?
Its T/C is 139 % of control.

With `Cc1[nH]c2c(-c3ccccc3)c3cc(Cl)ccc3nc2c1C(=O)O` as the molecule, how does the survivor count [7] read?
The survivor count was 6 of 6.

`Clc1ccc2c(NCC3CCCN4CCCCC34)ccnc2c1` (centres undefined) was tested. Which survivor count [1] did it give?
The survivor count was 1 of 6.

For `O=c1c2ccccc2sc2cccc(NCCN3CCC(C4CCN(CCNc5cccc6sc7ccccc7c(=O)c56)CC4)CC3)c12`, which survivor count (dose: 25.0 mg/kg/injection, schedule: Q01DX005 (ip), vehicle: saline with Tween-80) is on record?
Its survivor count is 6 of 6 (2×).

And the survivor count (dose: 50.0 mg/kg/injection, schedule: Q01DX005 (ip), vehicle: saline with Tween-80)?
The survivor count was 6 of 6.

Which results are given for `CCCCN=Cc1c(OC(C)=O)c(OC(C)=O)c(C(C)C)c2cc(C)c(-c3c(C)cc4c(C(C)C)c(OC(C)=O)c(OC(C)=O)c(C=NCCCC)c4c3OC(C)=O)c(OC(C)=O)c12`?
survivor count [9]: 6 of 6; survivor count [10]: 6 of 6; survivor count [1]: 6 of 6

Which results are given for `CCCOc1cncc(C)n1`?
survivor count [6]: 5 of 6; survivor count [8]: 2 of 6

`N#CCc1ccc(C(C#N)C(=O)CCC(=O)C(C#N)c2ccc(CC#N)cc2)cc1` (centres undefined) was tested. Which survivor count [12] did it give?
Its survivor count is 0 of 6.

Which results are given for `NC1[N-]C(C2CCCC[N-]2)CC2CCCCC21.NC1[N-]C(C2CCCC[N-]2)CC2CCCCC21.O=[N+]([O-])O.[Cu+2]` (centres undefined)?
survivor count (dose: 25.0 mg/kg/injection, schedule: Q04DX002 (ip), vehicle: suspension in saline): 1 of 6; survivor count (dose: 100.0 mg/kg/injection, schedule: Q04DX002 (ip), vehicle: suspension in saline): 0 of 6; survivor count (dose: 200.0 mg/kg/injection, schedule: Q04DX002 (ip), vehicle: suspension in saline): 0 of 6; survivor count (dose: 400.0 mg/kg/injection, schedule: Q04DX002 (ip), vehicle: suspension in saline): 0 of 6

How did the survivor count [3] turn out when `CCC(=O)NC1=C(N2CC2C)C(=O)C(NC(=O)CC)=C(N2CC2C)C1=O` (centres undefined) was run?
The survivor count was 5 of 6.

And the survivor count [4]?
The survivor count was 6 of 6.

And the survivor count [5]?
The survivor count was 0 of 6.

And the survivor count [6]?
The survivor count was 4 of 6.

How did the T/C (dose: 12.5 mg/kg/injection, schedule: Q01DX009 (ip), vehicle: water) turn out when `N=c1c2ccn(C3OC(CO)C(O)C3O)c2ncn1N` (centres undefined) was run?
The T/C was 126 % of control.

What about the T/C (dose: 25.0 mg/kg/injection, schedule: Q01DX009 (ip), vehicle: water) of the same molecule?
The T/C was 125 % of control.

What about the survivor count (dose: 100.0 mg/kg/injection, schedule: Q01DX009 (ip), vehicle: water) of the same molecule?
Its survivor count is 6 of 6.

With `C=C1C(=O)O[C@@H]2C(=O)[C@@H](C)[C@@H]3C=CC(=O)[C@@]3(C)[C@@H](OC(=O)/C(C)=C\C)[C@H]12` as the molecule, how does the T/C (dose: 16.0 mg/kg/injection, schedule: Q01DX009 (ip), vehicle: saline + alcohol) read?
Its T/C is 125 % of control.

And the T/C (dose: 32.0 mg/kg/injection, schedule: Q01DX009 (ip), vehicle: saline + alcohol)?
The T/C was 130 and 131 % of control.

And the survivor count (dose: 64.0 mg/kg/injection, schedule: Q01DX009 (ip), vehicle: saline + alcohol)?
Its survivor count is 4 of 6.

Which results are given for `NC1=NC(c2c3ccccc3cc3ccccc23)N=C(Nc2cccc(Cl)c2)N1` (centres undefined)?
survivor count (dose: 25.0 mg/kg/injection, schedule: Q01DX009 (ip), vehicle: saline with Tween-80): 6 of 6; survivor count (dose: 50.0 mg/kg/injection, schedule: Q01DX009 (ip), vehicle: saline with Tween-80): 6 of 6; survivor count [13]: 5 of 6; survivor count [14]: 1 of 6

Which results are given for `CC(C(=O)O)c1ccc2c(c1)Cc1ccccc1-2` (centres undefined)?
survivor count [13]: 6 of 6; survivor count [14]: 5 of 6

For `CCc1nc(N)nc(N)c1-c1ccc(N(C)C)c(N)c1`, which survivor count [1] is on record?
The survivor count was 0 of 6.

What does the source list for `Cc1[c-]onc1C.Cc1[c-]onc1C.[Ag].[Ag].[NH-]S(=O)(=O)c1ccc(N=Nc2cc(N=Nc3ccc(S([NH-])(=O)=O)cc3)c3c(NC(=O)C(Cl)Cl)cccc3c2OC(=O)C(Cl)Cl)cc1`?
survivor count (dose: 12.5 mg/kg/injection, schedule: Q01DX009 (ip), vehicle: saline with Tween-80): 6 of 6; survivor count [13]: 4 of 6; survivor count [14]: 0 of 6

Which results are given for `Cc1c(C)c(=O)c2cc3c(=O)ccc(=O)c3cc2c1=O`?
survivor count (dose: 100.0 mg/kg/injection, schedule: Q04DX003 (ip), vehicle: Klucel (hydroxypropylcellulose) (HPC)): 2 of 6; survivor count (dose: 200.0 mg/kg/injection, schedule: Q04DX003 (ip), vehicle: Klucel (hydroxypropylcellulose) (HPC)): 0 of 6; survivor count (dose: 400.0 mg/kg/injection, schedule: Q04DX003 (ip), vehicle: Klucel (hydroxypropylcellulose) (HPC)): 0 of 6

Which results are given for `C=CCC1OC(=O)CCNC(=O)C(C)N(C)C(=O)C(C(C)C)N(C)C(=O)C(C(C)CC)NC(=O)C2CCCN2C1=O` (centres undefined)?
survivor count (dose: 25.0 mg/kg/injection, schedule: Q01DX005 (ip), vehicle: distilled water + Tween-80): 0 of 6; survivor count (dose: 50.0 mg/kg/injection, schedule: Q01DX005 (ip), vehicle: distilled water + Tween-80): 0 of 6; survivor count (dose: 100.0 mg/kg/injection, schedule: Q01DX005 (ip), vehicle: distilled water + Tween-80): 0 of 6; survivor count (dose: 200.0 mg/kg/injection, schedule: Q01DX005 (ip), vehicle: distilled water + Tween-80): 0 of 6

For `Fc1ccc(NP(=S)(Nc2ccc(F)cc2F)Nc2ccc(F)cc2F)c(F)c1`, which survivor count (dose: 200.0 mg/kg/injection, schedule: Q04DX002 (ip), vehicle: saline with Tween-80) is on record?
The survivor count was 0 of 6.

And the survivor count [11]?
The survivor count was 0 of 6.

Which survivor count [14] does the source give for `O=c1nc(Nc2cccc(Cl)c2)oc2cc(Cl)oc(=O)c12` here?
The survivor count was 3 of 6.

`CCN1CCCC(Nc2cc(C)nc(Nc3nc4cc(Cl)c(Cl)cc4[nH]3)n2)C1` (centres undefined) was tested. Which survivor count [2] did it give?
Its survivor count is 2 of 6.

What about the survivor count [3] of the same molecule?
Its survivor count is 0 of 6.

With `O=C1Nc2ccccc2S/C1=C\c1ccccc1C(F)(F)F` as the molecule, how does the survivor count [8] read?
The survivor count was 0 of 6.

For `CC(=O)Nc1ccc2c(Nc3ccc(NS(C)(=O)=O)cc3)c3ccccc3nc2c1`, which T/C (dose: 0.29 mg/kg/injection, schedule: Q04DX003 (ip), vehicle: saline) is on record?
Its T/C is 149 % of control.

What about the T/C (dose: 0.44 mg/kg/injection, schedule: Q04DX003 (ip), vehicle: saline) of the same molecule?
The T/C was 144 % of control.

What about the T/C (dose: 0.66 mg/kg/injection, schedule: Q04DX003 (ip), vehicle: saline) of the same molecule?
Its T/C is 146 % of control.

Which results are given for `COc1ccc2c(c1)C(c1cccc3ccccc13)OC2=O` (centres undefined)?
survivor count [10]: 6 of 6; survivor count [1]: 6 of 6

`CN(C)CCCNc1ccc2ccc3c(NCCCN(C)C)ccc4ccc1c2c43` was tested. Which survivor count [7] did it give?
Its survivor count is 0 of 6.

`CN(CCO)c1ccc([N+](=O)[O-])c2nonc12` was tested. Which T/C (dose: 100.0 mg/kg/injection, schedule: Q04DX002 (ip), vehicle: saline) did it give?
Its T/C is 145 % of control.

With `Cc1nn(C(=O)c2cccnc2)c(-c2ccccc2)c1N=Nc1ccc(S(=O)(=O)Nc2ncccn2)cc1` as the molecule, how does the survivor count [12] read?
The survivor count was 6 of 6.

What does the source list for `CC[C@@H]1C[C@H]2CC3c4[nH]c5ccc(O)cc5c4CCN(C2)C31`?
survivor count (dose: 200.0 mg/kg/injection, schedule: Q01DX001 (ip), vehicle: saline with Tween-80): 0 of 6; survivor count (dose: 400.0 mg/kg/injection, schedule: Q01DX001 (ip), vehicle: saline with Tween-80): 0 of 6

Source: PubChem BioAssay AID330 (DTP/NCI, 2004)
